These are yes or no findings as the source states them, for the method shown. In cells and extracts the contact can be indirect. Some binding calls cover weakened binding; strength is not graded here.
Target: β3 protein (β3 integrin subunit) of human endothelial cells (human) (UniProt P05106)
Test: co-immunoprecipitation from human endothelial cells exposed to PTA-13161 antibody (FIG. 6C)

Chains of the proteins cited; added tags and fusions are not shown. Lines headed by an entry give the natural chain unless they say otherwise; changes in a name come on top. Residues count along the entry.
UniProt P05106, residues 27-788: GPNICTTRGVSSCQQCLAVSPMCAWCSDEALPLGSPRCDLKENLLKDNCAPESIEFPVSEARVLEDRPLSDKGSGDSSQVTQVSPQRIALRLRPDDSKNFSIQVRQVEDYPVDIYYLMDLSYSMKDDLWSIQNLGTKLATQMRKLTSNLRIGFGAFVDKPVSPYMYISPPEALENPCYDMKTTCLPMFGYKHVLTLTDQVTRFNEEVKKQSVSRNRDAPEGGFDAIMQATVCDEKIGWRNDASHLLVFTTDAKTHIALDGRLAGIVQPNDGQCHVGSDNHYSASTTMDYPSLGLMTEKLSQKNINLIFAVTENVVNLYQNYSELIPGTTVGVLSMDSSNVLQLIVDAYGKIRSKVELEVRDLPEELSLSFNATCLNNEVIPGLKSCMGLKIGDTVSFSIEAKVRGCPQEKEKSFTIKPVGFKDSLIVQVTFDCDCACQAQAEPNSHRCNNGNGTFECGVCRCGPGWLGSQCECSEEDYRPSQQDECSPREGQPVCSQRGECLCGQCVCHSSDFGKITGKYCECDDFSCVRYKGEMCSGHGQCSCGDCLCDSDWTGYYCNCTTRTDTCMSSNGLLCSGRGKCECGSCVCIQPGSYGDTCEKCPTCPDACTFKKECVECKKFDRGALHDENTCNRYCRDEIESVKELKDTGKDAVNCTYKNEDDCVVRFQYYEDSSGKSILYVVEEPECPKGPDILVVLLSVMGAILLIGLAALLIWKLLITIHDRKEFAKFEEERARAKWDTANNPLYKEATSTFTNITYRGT
UniProt Q08722: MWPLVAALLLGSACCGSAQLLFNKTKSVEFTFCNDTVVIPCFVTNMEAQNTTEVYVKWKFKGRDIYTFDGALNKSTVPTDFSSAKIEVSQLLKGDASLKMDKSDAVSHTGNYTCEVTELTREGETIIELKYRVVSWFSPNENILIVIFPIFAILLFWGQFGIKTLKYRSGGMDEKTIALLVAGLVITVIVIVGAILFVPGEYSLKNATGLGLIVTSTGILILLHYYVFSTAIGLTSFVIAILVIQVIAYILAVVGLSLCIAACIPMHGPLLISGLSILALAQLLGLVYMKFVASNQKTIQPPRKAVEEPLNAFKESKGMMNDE

binding: binds
Substance: human IAP protein (from UniProt Q08722 19-303) (receptor)
